PubChem BioAssay AID1259425, University of Nebraska Medical Center, 2018
The deposit covers about 14,000 reagents; shown is a part drawn at random. Further read-outs or replicates are left out here. No sequences are given here. Not stated in the record: the time to read-out.

Test: 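Find knockdowns that reproduce the gene expression pattern seen when KSR1 is lost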 (primary screen)
Cells: HCT116 human colon cancer cells
Reagents: siRNA pool against human genes, 50 nM siRNA
Detection: 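After 50 nM siRNA pool, branched-DNA assay measures six marker transcripts per well, minus blank, normalised to the geometric mean of two housekeeping transcripts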
Direction: BNIP3L mRNA: higher = more BNIP3L transcript after knockdown; NDRG1 mRNA: higher = more NDRG1 transcript after knockdown; BNIP3 mRNA: higher = more BNIP3 transcript after knockdown

no.	gene	BNIP3L mRNA, set 1	NDRG1 mRNA, set 1	BNIP3 mRNA, set 1
1	GTF2E1	0.0364	0.311	0.224
2	PIWIL2	0.0947	0.135	0.356
3	EP400	0.296	1.57	0.756
4	ALAS2	0.0855	0.0635	0.189
5	THRA	0.0892	0.296	0.228
6	ZSCAN10	0.0378	0.054	0.219
7	TMCC3	0.106	0.265	0.354
8	PARP2	0.0978	0.107	0.334
9	ACTG2	0.0689	0.306	0.185
10	EED	0.103	0.228	0.297
11	ZFYVE1	0.131	0.102	0.188
12	WDR45	0.0454	0.457	0.265
13	GPR183	0.182	0.104	0.314
14	CPPED1	0.0876	0.307	0.32
15	HTR7	0.117	0.17	0.286
16	BRIP1	0.068	0.0876	0.2
17	MRPL39	0.0814	0.172	0.291
18	LRRC37A	0.083	0.109	0.238
19	AADAC	0.217	0.157	0.349
20	RAD51	0.173	0.882	0.438
21	CRYBB1	0.124	0.232	0.763
22	WDR47	0.108	0.166	0.287
23	LRP1B	0.0786	0.198	0.298
24	SERTAD3	0.161	0.191	0.376
25	TMPRSS4	0.249	0.351	0.268
26	DOK3	0.129	0.198	0.475
27	ABRAXAS2	0.257	0.24	0.492
28	PIK3C2A	0.115	0.245	0.621
29	KCNK12	0.0424	0.309	0.344
30	LHFPL2	0.116	0.189	0.358
31	CDK17	0.116	0.124	0.34
32	SPIN2A	0.15	0.455	0.352
33	RPA4	0.121	0.185	0.343
34	TAS2R40	0.142	0.166	0.307
35	PABPC1	0.153	2.06	0.706
36	TULP4	0.152	0.282	0.373
37	SPPL2A	0.148	0.163	0.281
38	SLC25A12	0.133	0.12	0.291
39	HRH2	0.151	0.503	0.351
40	DENND2D	0.0576	0.327	0.302
41	INSL5	0.0503	0.142	0.157
42	OTUB1	0.0793	0.0726	0.144
43	PKD2L1	0.0411	0.168	0.281
44	TNP2	0.0431	0.0853	0.2
45	SKAP2	0.0728	0.0688	0.187
46	FLAD1	0.106	0.309	0.321
47	GATA4	0.0798	0.333	0.394
48	WSCD2	0.0907	0.383	0.349
49	KBTBD2	0.0988	0.122	0.371
50	EXPH5	0.173	0.116	0.394

3 entries from above, set out differently:
gene,"BNIP3L mRNA, set 1","NDRG1 mRNA, set 1","BNIP3 mRNA, set 1"
LRRC37A,0.083,0.109,0.238
AADAC,0.217,0.157,0.349
RAD51,0.173,0.882,0.438
